In PubChem BioAssay AID328 (DTP/NCI, 2004):
The list shows only some results of the screen, not a fair sample: it gathers tests that were run many times, whatever their T/C, doses with no T/C, and many T/C values between a quarter and a half above the control. Other doses and runs of a compound stand elsewhere. T/C is the treated group as % of the vehicle group. Some doses have a count of surviving animals in place of a T/C: the source holds a T/C of zero for them, seemingly a mark for toxic or unscored doses. Some doses without a T/C left all or most animals alive at the check, yet need not have been tolerated: the source hardly ever lists a survival T/C far under the control, and the zero likely stands for such cases as well. Survivors were counted at the toxicity check, usually on the fifth day, unless a day is given; later deaths do not show. Schedule codes are those of the source, taken here to give the interval after Q, in days (D) or hours (H), and the number of doses after X. Where survival is the endpoint, the PubChem record calls one and a half times the control and up active, and a quarter to a half above the control has no call in these data; cut-offs in other NCI protocols can differ. Some entries hold several experiments; their values stand side by side, smallest first. Some T/C values are followed by the survivors on the day toxicity was checked, most often the fifth; without a count, all were alive then.

Tested on: BDF1 mice, P388 leukemia ip, median survival T/C
Test: NCI In Vivo Anticancer Drug Screen. Data for tumor model P388 Leukemia (intraperitoneal) in B6D2F1 (BDF1) mice
Settings: T/C endpoint: median survival time, higher T/C = longer survival
Summary of the method: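 Steps: implant the tumour, treat one group with compound and another with vehicle, record survival, then divide treated by control.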

## COC(=O)C[C@](O)(CCCC(C)(C)O)C(=O)O[C@@H]1C(OC)=C[C@]23CCCN2CCc2cc4c(cc2[C@H]13)OCO4
dose: 0.25 mg/kg/injection, schedule: Q03HX008 (ip), vehicle: acid diluted with saline
  T/C: 140 % of control
dose: 0.5 mg/kg/injection, schedule: Q01DX009 (sc), vehicle: acid diluted with saline
  T/C: 125 % of control
dose: 0.5 mg/kg/injection, schedule: Q03HX008 (ip), vehicle: acid diluted with saline
  T/C: 140 % of control
dose: 0.72 mg/kg/injection, schedule: Q04DX003 (ip), vehicle: acid diluted with saline
  T/C: 127 and 128 % of control
dose: 1.0 mg/kg/injection, schedule: Q01DX009 (sc), vehicle: saline
  T/C: 140 % of control
dose: 1.0 mg/kg/injection, schedule: Q04DX003 (ip), vehicle: acid diluted with saline
  T/C: 130 % of control
dose: 1.0 mg/kg/injection, schedule: Q04DX003 (ip), vehicle: saline
  T/C: 147 % of control
dose: 1.2 mg/kg/injection, schedule: Q04DX003 (ip), vehicle: acid diluted with saline
  T/C: 142 and 147 % of control
dose: 2.0 mg/kg/injection, schedule: Q01DX009 (ip), vehicle: water
  survivor count: 6 of 6
dose: 2.0 mg/kg/injection, schedule: Q01DX009 (oral), vehicle: acid diluted with saline
  T/C: 140 % of control
dose: 2.0 mg/kg/injection, schedule: Q01DX009 (oral), vehicle: saline
  survivor count: 1 of 10
dose: 2.0 mg/kg/injection, schedule: Q01DX010 (ip), vehicle: saline
  survivor count: 6 of 6
dose: 2.0 mg/kg/injection, schedule: Q03HX008 (ip), vehicle: acid diluted with saline
  survivor count: 0 of 10
dose: 2.0 mg/kg/injection, schedule: Q03HX016 (ip), vehicle: acid diluted with saline
  survivor count: 2 of 10
dose: 2.0 mg/kg/injection, schedule: Q08DX002 (ip), vehicle: acid diluted with saline
  T/C: 130 % of control
dose: 3.33 mg/kg/injection, schedule: Q04DX003 (ip), vehicle: acid diluted with saline
  survivor count: 7 of 8
dose: 4.0 mg/kg/injection, schedule: Q01DX009 (ip), vehicle: acid diluted with saline
  survivor count: 9 of 10
dose: 4.0 mg/kg/injection, schedule: Q01DX009 (ip), vehicle: saline
  survivor count: 7 of 10
dose: 4.0 mg/kg/injection, schedule: Q01DX009 (oral), vehicle: acid diluted with saline
  survivor count: 7 of 10
dose: 4.0 mg/kg/injection, schedule: Q01DX009 (oral), vehicle: saline
  survivor count: 1 of 10
dose: 4.0 mg/kg/injection, schedule: Q01DX009 (sc), vehicle: acid diluted with saline
  survivor count: 10 of 10
dose: 4.0 mg/kg/injection, schedule: Q01DX010 (ip), vehicle: saline
  survivor count: 1 of 6
dose: 4.0 mg/kg/injection, schedule: Q04DX003 (ip), vehicle: saline
  survivor count: 8 of 8
dose: 4.0 mg/kg/injection, schedule: Q08DX002 (ip), vehicle: acid diluted with saline
  T/C: 130 % of control
dose: 8.0 mg/kg/injection, schedule: Q01DX001 (ip), vehicle: acid diluted with saline
  T/C: 130 % of control
dose: 8.0 mg/kg/injection, schedule: Q01DX001 (iv), vehicle: acid diluted with saline
  survivor count: 4 of 10
dose: 8.0 mg/kg/injection, schedule: Q01DX001 (oral), vehicle: acid diluted with saline
  survivor count: 6 of 10
dose: 8.0 mg/kg/injection, schedule: Q01DX001 (sc), vehicle: acid diluted with saline
  survivor count: 6 of 10
dose: 8.0 mg/kg/injection, schedule: Q01DX009 (ip), vehicle: acid diluted with saline
  survivor count: 1 of 10
dose: 8.0 mg/kg/injection, schedule: Q01DX009 (ip), vehicle: saline
  survivor count: 0 of 10
dose: 8.0 mg/kg/injection, schedule: Q01DX009 (oral), vehicle: acid diluted with saline
  survivor count: 1 of 10
dose: 8.0 mg/kg/injection, schedule: Q01DX009 (oral), vehicle: saline
  survivor count: 0 of 10
dose: 8.0 mg/kg/injection, schedule: Q01DX009 (sc), vehicle: saline
  survivor count: 2 of 10
dose: 8.0 mg/kg/injection, schedule: Q04DX003 (ip), vehicle: acid diluted with saline
  survivor count: 8 of 10
dose: 8.0 mg/kg/injection, schedule: Q04DX003 (ip), vehicle: saline
  survivor count: 0 of 8
dose: 8.0 mg/kg/injection, schedule: Q08DX002 (ip), vehicle: acid diluted with saline
  survivor count: 5 of 10
dose: 11.0 mg/kg/injection, schedule: Q01DX009 (ip), vehicle: acetone
  survivor count: 0 of 6
dose: 16.0 mg/kg/injection, schedule: Q01DX001 (ip), vehicle: acid diluted with saline
  survivor count: 2 of 10
dose: 16.0 mg/kg/injection, schedule: Q01DX001 (iv), vehicle: acid diluted with saline
  survivor count: 0 of 10
dose: 16.0 mg/kg/injection, schedule: Q01DX001 (oral), vehicle: acid diluted with saline
  survivor count: 2 of 10
dose: 16.0 mg/kg/injection, schedule: Q01DX001 (sc), vehicle: acid diluted with saline
  survivor count: 0 of 10
dose: 16.0 mg/kg/injection, schedule: Q04DX003 (ip), vehicle: saline
  survivor count: 8 of 8
dose: 16.0 mg/kg/injection, schedule: Q08DX002 (ip), vehicle: acid diluted with saline
  survivor count: 2 of 10
dose: 18.0 mg/kg/injection, schedule: Q01DX009 (ip), vehicle: acetone
  survivor count: 0 of 6
dose: 27.0 mg/kg/injection, schedule: Q01DX009 (ip), vehicle: acetone
  survivor count: 0 of 6
dose: 32.0 mg/kg/injection, schedule: Q01DX001 (oral), vehicle: acid diluted with saline
  survivor count: 0 of 10
dose: 1000.0 micrograms/kg/injection, schedule: Q03HX024 (ip), vehicle: acid diluted with saline
  survivor count: 8 of 10
dose: 2000.0 micrograms/kg/injection, schedule: Q03HX024 (ip), vehicle: acid diluted with saline
  survivor count: 0 of 10

## Nc1nc2c(ncn2C2OC(CO)C(O)C2O)c(=O)[nH]1 (configuration not stated)
dose: 50.0 mg/kg/injection, schedule: Q04DX003 (ip), vehicle: saline with Tween-80
  T/C: 130 % of control
dose: 200.0 mg/kg/injection, schedule: Q04DX003 (ip), vehicle: saline with Tween-80
  survivor count: 2 of 6
dose: 400.0 mg/kg/injection, schedule: Q04DX003 (ip), vehicle: saline with Tween-80
  survivor count: 0 of 6

## c1c2c(cc3c1OCO3)CC1CCCN1CC2 (configuration not stated)
dose: 2.0 mg/kg/injection, schedule: Q01DX009 (ip), vehicle: saline with Tween-80
  survivor count: 10 of 10

## NC(N)=NC(N)=Nc1ccc([As](=O)(O)O)c(O)c1
dose: 66.0 mg/kg/injection, schedule: Q01DX009 (ip), vehicle: saline
  T/C: 130 % of control
dose: 100.0 mg/kg/injection, schedule: Q01DX009 (ip), vehicle: saline
  T/C: 140 % of control

## CC(C)CCCC(C)C1CCC2C3CC=C4CC([Se][As](C)C)CCC4(C)C3CCC12C (configuration not stated)
dose: 200.0 mg/kg/injection, schedule: Q01DX009 (ip), vehicle: saline with Tween-80
  T/C: 129 % of control [5 of 6 alive]

## CC(=O)OC1(C)CC(C)C(O)C(C(O)CC2CC(=O)NC(=O)C2)C1 (configuration not stated)
dose: 1.0 mg/kg/injection, schedule: Q01DX010 (ip), vehicle: water, evaluated on day 30
  T/C: 140 % of control
dose: 1.0 mg/kg/injection, schedule: Q01DX010 (ip), vehicle: water, run until all animals had died
  T/C: 140 % of control
dose: 6.0 mg/kg/injection, schedule: Q01DX010 (ip), vehicle: other
  survivor count: 5 of 6
dose: 9.0 mg/kg/injection, schedule: Q01DX010 (ip), vehicle: other
  survivor count: 3 of 6

## CNC(=O)C(C)(C)Br
dose: 100.0 mg/kg/injection, schedule: Q04DX003 (ip), vehicle: saline
  survivor count: 5 of 6

## CC(=O)c1ccc2ccccc2c1OC(=O)c1cccnc1
dose: 25.0 mg/kg/injection, schedule: Q01DX009 (ip), vehicle: other
  T/C: 127 % of control
dose: 400.0 mg/kg/injection, schedule: Q01DX009 (ip), vehicle: other
  survivor count: 5 of 6

## CS(=O)(=O)Nc1ccc(Nc2c3ccccc3nc3cc(N)ccc23)cc1
dose: 5.0 mg/kg/injection, schedule: Q01DX009 (ip), vehicle: saline
  survivor count: 6 of 6
dose: 6.25 mg/kg/injection, schedule: Q04DX003 (ip), vehicle: saline with Tween-80
  T/C: 136 % of control
dose: 10.0 mg/kg/injection, schedule: Q01DX009 (ip), vehicle: saline
  survivor count: 5 of 6
dose: 12.5 mg/kg/injection, schedule: Q04DX003 (ip), vehicle: saline with Tween-80
  survivor count: 6 of 6
dose: 25.0 mg/kg/injection, schedule: Q04DX003 (ip), vehicle: saline with Tween-80
  survivor count: 3 of 6
